In PubChem BioAssay AID504834 (National Center for Advancing Translational Sciences (NCATS), 2011):
“And” between values parts separate entries of the source, which are not always exact repeats. Equal entries are not always repeated. Hit rate of the full screen: of about 320,000 compounds, about 22,000 (6.9%) were called active. Inconclusive results, whose numbers are uncertain, are shown with a selection of clear calls. The call rests on the fitted dose curve; in most records, active means well fitted inhibition curve with a large enough effect; inconclusive means small, poorly fitted or top-dose-only effect, or another doubt; inactive means no such curve, though single readings can be large or run the other way. Potencies beside an inconclusive call are fits to weak or partial responses and may not hold up.

Assay: Primary qHTS for delayed death inhibitors of the malarial parasite plastid, 96 hour incubation
Settings: P. falciparum luciferase reporter growth; series mostly up to 28.7 µM
Summary of the method: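 Compounds incubated with erythrocytes infected by luciferase-expressing P. falciparum (2% hematocrit, 0.05% parasitemia final) for 96 hours, 37 C in 5% CO2. Growth inhibition scored as decreased luciferase luminescence.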
On the % scale 0 is the no-effect control and ±100 the full control effect; potency means the concentration at half of the fitted maximal effect.

Row | Structure (SMILES) | Potency | activity change, negative = inhibition
1 | COCCn1c(SCC(=O)NCc2ccco2)nc2cccnc21 | inconclusive: 13.1 µM [inhibitor, partial curve] | –
2 | CC(C)Cc1nnc(NC(=O)CCC(=O)N2CCN(c3ccc(Cl)cc3)CC2)s1 | inconclusive: 18.5 µM [inhibitor, partial curve, poor fit] | –
3 | O=[N+]([O-])c1ccccc1OCC(O)CN1CCN(CC(O)COc2ccccc2[N+](=O)[O-])CC1 (stereo not drawn) | inactive | –
4 | Cc1ccccc1CN1CCNC(=O)C1CC(=O)O (stereo not drawn) | inactive | –
5 | COC(=O)C1(CCSC)NC(c2ccc(OC)cc2OC)C2C(=O)N(c3cccc(C(C)=O)c3)C(=O)C21 (stereo not drawn) | inconclusive: 18.5 µM [inhibitor, single point] | –
6 | C[N+](C)(C)CCOC(=O)CBr | inactive | –
7 | Cc1ccc(C(=O)NC(NC(=S)Nc2ccc(S(N)(=O)=O)cc2)C(Cl)(Cl)Cl)cc1 (stereo not drawn) | inactive | –
8 | O=C(CSc1ccsc1[N+](=O)[O-])NCCc1ccc(Cl)cc1 | inactive | –
9 | CCOc1cc(C(=O)Nc2ccccc2N2CCOCC2)ccc1OCC(=O)N1CCCCC1 | inconclusive: 2.94 µM [inhibitor, partial curve] | –
10 | CCC(C)c1ccc(C(C)NC(=S)NCc2ccc(F)cc2)cc1 (stereo not drawn) | inconclusive: 2.94 µM [inhibitor, single point] | –
11 | c1ccc(Nc2nc(Nc3ccccc3)nc(N3CCNCC3)n2)cc1 | active: 9.28 µM | –
12 | O=C(NCc1ccc2c(c1)OCO2)C1CCCN(S(=O)(=O)c2cccc3cccnc23)C1 (stereo not drawn) | inconclusive: 13.1 µM [inhibitor, single point] | –
13 | O=C(C[n+]1ccccc1)N/N=C/c1cc(Br)ccc1F | inconclusive: 9.28 µM [inhibitor, partial curve, poor fit] | –
14 | Cc1nc2ccccc2c(=O)n1-c1cc([N+](=O)[O-])cc([N+](=O)[O-])c1 | inactive | –
15 | COc1cc(CNCCc2ccc(F)cc2)ccc1OCc1ccc(Cl)nc1 | inconclusive: 2.62 µM [inhibitor, full curve, poor fit] | –
16 | Cc1cc(OCC(=O)NC(C)c2ccccc2)ccc1[N+](=O)[O-] (stereo not drawn) | inactive | –
17 | COc1nc(NC(=O)c2ccc(F)cc2)nc(OC)c1-c1ccccc1 | inconclusive: 18.5 µM [inhibitor, single point] | –
18 | CC1=NCCN1S(=O)(=O)c1cccc([N+](=O)[O-])c1 | inconclusive: 16.5 µM [inhibitor, partial curve, poor fit] | –
19 | O=C(c1cc2ccccc2o1)N1CCCCCC1 | – | inactive: 17.1% [at 5.75 µM]
20 | Cc1cc(=O)oc2c(C)c(OC(C)C(=O)NCC(O)c3ccccc3)ccc12 (stereo not drawn) | inconclusive: 18.5 µM [inhibitor, single point] | –
21 | CCOC(=O)c1c(C)nc(-c2ccccc2)nc1NC(C)=O | inconclusive: 9.28 µM [inhibitor, partial curve, poor fit] | –
22 | CCCN1C(=O)C(Cc2nc3ccccc3c(=O)n2C)c2ccccc21 (stereo not drawn) | inconclusive: 0.0738 µM [inhibitor, full curve, poor fit] | –
23 | O=C(NNC(=O)c1cccc2ccccc12)c1ccccc1O | inconclusive: 11.7 µM [inhibitor, single point] | –

Ordered by count of non-hydrogen atoms (ascending): part of the list above
Row | Structure (SMILES) | Potency | activity change, negative = inhibition
13 | O=C(C[n+]1ccccc1)N/N=C/c1cc(Br)ccc1F | inconclusive: 9.28 µM [inhibitor, partial curve, poor fit] | –
21 | CCOC(=O)c1c(C)nc(-c2ccccc2)nc1NC(C)=O | inconclusive: 9.28 µM [inhibitor, partial curve, poor fit] | –
1 | COCCn1c(SCC(=O)NCc2ccco2)nc2cccnc21 | inconclusive: 13.1 µM [inhibitor, partial curve] | –

More records

Row | Structure (SMILES) | Potency | activity change, negative = inhibition
24 | COc1ccc(N2C(=O)CC(n3c(CCCCO)nc4ccccc43)C2=O)cc1 (stereo not drawn) | inactive | –
25 | O=C(Cn1ncc2c(=O)oc3ccccc3c21)NCC1COc2ccccc2O1 (stereo not drawn) | active: 1.85 µM | –
26 | CCOC(=O)CSc1nn(C)c(=S)s1 | inconclusive: 10.4 µM [inhibitor, single point] | –
27 | Cn1c(SCC(=O)NC2CCCCC2)nnc1-c1cccc(N)c1 | active: 4.15 µM | –
28 | O=C(NC1CCS(=O)(=O)C1)/C(=C\c1ccccc1)NC(=O)c1ccccc1 (stereo not drawn) | inconclusive: 14.7 µM [inhibitor, single point] | –
29 | O=C(COc1ccccc1)NNc1nc2c(F)cccc2s1 | inactive | –
30 | CC1CC(C)CN(C(=O)C2CCN(S(=O)(=O)c3cccc4cccnc34)CC2)C1 (stereo not drawn) | inconclusive: 11.7 µM [inhibitor, single point] | –
31 | COc1ccc(-c2c(C#Cc3ccccc3)c3ccccc3n2C)cc1 | active: 6.57 µM | –
32 | CCOC(=O)N1CCN(C(=O)COc2ccc(Br)cc2Cl)CC1 | inconclusive: 13.1 µM [inhibitor, partial curve] | –
33 | CCNCc1ccc(OCc2ccccc2F)c(OC)c1 | inconclusive: 18.5 µM [inhibitor, single point] | –
34 | COCC1CCN(Cc2nc(-c3cccs3)no2)C1 (stereo not drawn) | inconclusive: 18.5 µM [inhibitor, single point] | –
35 | CN(C(=O)CN(CCO)CC(=O)N(C)C(C)(C)Cc1ccccc1)C(C)(C)Cc1ccccc1 | inconclusive: 1.81 µM [inhibitor, full curve] and inconclusive: 11.7 µM [inhibitor, single point] | –
36 | Cc1cc(C)c(NC(=O)c2ccccc2CCc2ccccc2)c(C)c1 | inconclusive: 18.5 µM [inhibitor, single point] | –
37 | O=c1c2oc3ccccc3c2[nH]c(=S)n1-c1ccc(F)cc1 | active: 8.28 µM | –
38 | CCOc1ccc(N(CC(=O)Nc2ccccc2C(=O)NC(C)CC)S(C)(=O)=O)cc1 (stereo not drawn) | inconclusive: 18.5 µM [inhibitor, single point] | –
39 | CN(CC(=O)NCCN1CCN(c2ccccc2)CC1)S(=O)(=O)c1ccc2c(c1)CCC(=O)N2 | active: 4.65 µM | –
40 | CCOc1ccc(-n2nnnc2SCC(=O)NC2CCCC2)cc1 | inconclusive: 9.28 µM [inhibitor, partial curve, poor fit] | –
41 | COc1cccc(Oc2nnnn2-c2ccccc2)c1 | inconclusive: 0.0828 µM [inhibitor, full curve, poor fit] | –
42 | O=C1C(c2ccc(F)cc2)N(Cc2ccc3c(c2)OCO3)C(=O)CN1C1CCCC1 (stereo not drawn) | inconclusive: 16.5 µM [inhibitor, single point] | –
43 | O=C(CCC(=O)N1CCN(S(=O)(=O)c2ccc(Cl)cc2)CC1)Nc1ccc2ccccc2c1 | inactive | –
44 | CCCc1cc(C(=O)OCC(=O)N2CCN(c3ccc(OC)cc3)CC2)sc1C | inactive | –
45 | O=C1c2ccccc2C(=O)N1CC(O)COc1ccc(Cl)cc1 (stereo not drawn) | inactive | –
46 | CCN1C=C(Cc2ccc(F)cc2)C2=C(C1)C(c1ccc(F)cc1)C(C#N)=C(N)O2 (stereo not drawn) | inconclusive: 18.5 µM [inhibitor, single point] | –

Gathered by group, the entries above with a furan ring, fused or not.
Row | Structure (SMILES) | Potency | activity change, negative = inhibition
1 | COCCn1c(SCC(=O)NCc2ccco2)nc2cccnc21 | inconclusive: 13.1 µM [inhibitor, partial curve] | –
19 | O=C(c1cc2ccccc2o1)N1CCCCCC1 | – | inactive: 17.1% [at 5.75 µM]
37 | O=c1c2oc3ccccc3c2[nH]c(=S)n1-c1ccc(F)cc1 | active: 8.28 µM | –

Later entries.

Row | Structure (SMILES) | Potency | activity change, negative = inhibition
47 | CNC(=S)N1N=C(c2ccccc2)CC1c1ccc(OC)c(OC)c1 (stereo not drawn) | inactive | –
48 | CC(=O)c1c(C)[nH]c(C(=O)N2CCN(S(=O)(=O)c3ccc(C)cc3C)CC2)c1C | inconclusive: 7.38 µM [inhibitor, partial curve, poor fit] | –
49 | O=S(=O)(Cc1ccccc1)Oc1ccccc1 | inactive | –
50 | CCCN1C(=O)c2ccc(C(=O)Nc3ccc4c(c3)OCO4)cc2C1=O | inconclusive: 11.7 µM [inhibitor, single point] | –
51 | CCCCC1CCC(c2ccc(C(N)=O)cc2)CC1 (stereo not drawn) | inconclusive: 18.5 µM [inhibitor, single point] | –
52 | O=C(NCCOc1ccccc1)C(c1ccccc1)c1ccccc1 | inconclusive: 9.28 µM [inhibitor, partial curve] | –
53 | N#Cc1cc2c([nH]c1=S)CCCCCC2 | inactive | –
54 | Cc1c(/C=N/NC(=O)c2ccc(O)cc2)c2ccccn2c1C(=O)c1ccc(F)cc1 | inconclusive: 2.62 µM [inhibitor, single point] | –
55 | c1ccc2c(N3CCOCC3)c3c(nc2c1)CCC3 | inconclusive: 10.4 µM [inhibitor, partial curve, poor fit] | –
56 | CCc1nnc(NC(=O)CCC(=O)N2CCN(Cc3cc(F)ccc3OC)CC2)s1 | inconclusive: 13.1 µM [inhibitor, single point] | –
57 | COc1ccc(C(=O)Nc2nnc(S(=O)(=O)N3CCC(C)CC3)s2)cc1OC | inconclusive: 18.5 µM [inhibitor, single point] | –
58 | CCc1ccc(NC(=O)c2ccc(F)c(S(=O)(=O)N(CC)c3ccccc3)c2)cc1 | inconclusive: 16.5 µM [inhibitor, single point] | –
59 | COc1ccccc1NC(=S)Nc1cccc(F)c1 | inconclusive: 9.28 µM [inhibitor, single point] | –
60 | Cc1ccccc1S(=O)(=O)Cc1ccc(C(=O)NCCCN2CCN(C)CC2)o1 | inactive | –
61 | COc1ccc(C(=O)CNc2cccc(F)c2)cc1 | inactive | –
62 | Cc1ccc2nc(N3CCN(C(=O)CCC(=O)O)CC3)nc(-c3ccccc3)c2c1 | inconclusive: 3.7 µM [inhibitor, partial curve, poor fit] | –
63 | CCCN(CCC)CCNC(=O)CCC(=O)Nc1ccc2nc(N3CCOCC3)cc(C)c2c1 | inconclusive: 1.04 µM [inhibitor, partial curve, poor fit] | –
64 | C/C(=N\NC(=O)C(N)=O)c1cccc(C(F)(F)F)c1 | inconclusive: 0.522 µM [inhibitor, full curve, poor fit] | –
65 | COc1ccc(CCNC(=O)COC(=O)/C=C/c2cc(OC)c(OC)c(OC)c2)cc1OC | inconclusive: 8.28 µM [inhibitor, partial curve, poor fit] | –
66 | CCc1c(C)nc(N)n2c(SCC(=O)N3CCCc4ccccc43)nnc12 | inconclusive: 9.28 µM [inhibitor, single point] | –
67 | COc1ccccc1NC(=O)CC(=O)c1cccc([N+](=O)[O-])c1 | inconclusive: 5.22 µM [inhibitor, partial curve, poor fit] | –
68 | O=C(Cn1cc(C(F)(F)F)ccc1=O)NCCc1ccc(Cl)cc1Cl | inconclusive: 18.5 µM [inhibitor, single point] | –
